The supplement of paper PMC11006884
This list holds what a sample rich in targets with a hit left over. This is a noisy data set. This is a selection; strong and weak results do not stand in their true shares.

Sequences of proteins named here, by UniProt entry; tags and fusion partners are left off. A change or cut given only in a name is not applied to a line headed by its entry.
UniProt O95071: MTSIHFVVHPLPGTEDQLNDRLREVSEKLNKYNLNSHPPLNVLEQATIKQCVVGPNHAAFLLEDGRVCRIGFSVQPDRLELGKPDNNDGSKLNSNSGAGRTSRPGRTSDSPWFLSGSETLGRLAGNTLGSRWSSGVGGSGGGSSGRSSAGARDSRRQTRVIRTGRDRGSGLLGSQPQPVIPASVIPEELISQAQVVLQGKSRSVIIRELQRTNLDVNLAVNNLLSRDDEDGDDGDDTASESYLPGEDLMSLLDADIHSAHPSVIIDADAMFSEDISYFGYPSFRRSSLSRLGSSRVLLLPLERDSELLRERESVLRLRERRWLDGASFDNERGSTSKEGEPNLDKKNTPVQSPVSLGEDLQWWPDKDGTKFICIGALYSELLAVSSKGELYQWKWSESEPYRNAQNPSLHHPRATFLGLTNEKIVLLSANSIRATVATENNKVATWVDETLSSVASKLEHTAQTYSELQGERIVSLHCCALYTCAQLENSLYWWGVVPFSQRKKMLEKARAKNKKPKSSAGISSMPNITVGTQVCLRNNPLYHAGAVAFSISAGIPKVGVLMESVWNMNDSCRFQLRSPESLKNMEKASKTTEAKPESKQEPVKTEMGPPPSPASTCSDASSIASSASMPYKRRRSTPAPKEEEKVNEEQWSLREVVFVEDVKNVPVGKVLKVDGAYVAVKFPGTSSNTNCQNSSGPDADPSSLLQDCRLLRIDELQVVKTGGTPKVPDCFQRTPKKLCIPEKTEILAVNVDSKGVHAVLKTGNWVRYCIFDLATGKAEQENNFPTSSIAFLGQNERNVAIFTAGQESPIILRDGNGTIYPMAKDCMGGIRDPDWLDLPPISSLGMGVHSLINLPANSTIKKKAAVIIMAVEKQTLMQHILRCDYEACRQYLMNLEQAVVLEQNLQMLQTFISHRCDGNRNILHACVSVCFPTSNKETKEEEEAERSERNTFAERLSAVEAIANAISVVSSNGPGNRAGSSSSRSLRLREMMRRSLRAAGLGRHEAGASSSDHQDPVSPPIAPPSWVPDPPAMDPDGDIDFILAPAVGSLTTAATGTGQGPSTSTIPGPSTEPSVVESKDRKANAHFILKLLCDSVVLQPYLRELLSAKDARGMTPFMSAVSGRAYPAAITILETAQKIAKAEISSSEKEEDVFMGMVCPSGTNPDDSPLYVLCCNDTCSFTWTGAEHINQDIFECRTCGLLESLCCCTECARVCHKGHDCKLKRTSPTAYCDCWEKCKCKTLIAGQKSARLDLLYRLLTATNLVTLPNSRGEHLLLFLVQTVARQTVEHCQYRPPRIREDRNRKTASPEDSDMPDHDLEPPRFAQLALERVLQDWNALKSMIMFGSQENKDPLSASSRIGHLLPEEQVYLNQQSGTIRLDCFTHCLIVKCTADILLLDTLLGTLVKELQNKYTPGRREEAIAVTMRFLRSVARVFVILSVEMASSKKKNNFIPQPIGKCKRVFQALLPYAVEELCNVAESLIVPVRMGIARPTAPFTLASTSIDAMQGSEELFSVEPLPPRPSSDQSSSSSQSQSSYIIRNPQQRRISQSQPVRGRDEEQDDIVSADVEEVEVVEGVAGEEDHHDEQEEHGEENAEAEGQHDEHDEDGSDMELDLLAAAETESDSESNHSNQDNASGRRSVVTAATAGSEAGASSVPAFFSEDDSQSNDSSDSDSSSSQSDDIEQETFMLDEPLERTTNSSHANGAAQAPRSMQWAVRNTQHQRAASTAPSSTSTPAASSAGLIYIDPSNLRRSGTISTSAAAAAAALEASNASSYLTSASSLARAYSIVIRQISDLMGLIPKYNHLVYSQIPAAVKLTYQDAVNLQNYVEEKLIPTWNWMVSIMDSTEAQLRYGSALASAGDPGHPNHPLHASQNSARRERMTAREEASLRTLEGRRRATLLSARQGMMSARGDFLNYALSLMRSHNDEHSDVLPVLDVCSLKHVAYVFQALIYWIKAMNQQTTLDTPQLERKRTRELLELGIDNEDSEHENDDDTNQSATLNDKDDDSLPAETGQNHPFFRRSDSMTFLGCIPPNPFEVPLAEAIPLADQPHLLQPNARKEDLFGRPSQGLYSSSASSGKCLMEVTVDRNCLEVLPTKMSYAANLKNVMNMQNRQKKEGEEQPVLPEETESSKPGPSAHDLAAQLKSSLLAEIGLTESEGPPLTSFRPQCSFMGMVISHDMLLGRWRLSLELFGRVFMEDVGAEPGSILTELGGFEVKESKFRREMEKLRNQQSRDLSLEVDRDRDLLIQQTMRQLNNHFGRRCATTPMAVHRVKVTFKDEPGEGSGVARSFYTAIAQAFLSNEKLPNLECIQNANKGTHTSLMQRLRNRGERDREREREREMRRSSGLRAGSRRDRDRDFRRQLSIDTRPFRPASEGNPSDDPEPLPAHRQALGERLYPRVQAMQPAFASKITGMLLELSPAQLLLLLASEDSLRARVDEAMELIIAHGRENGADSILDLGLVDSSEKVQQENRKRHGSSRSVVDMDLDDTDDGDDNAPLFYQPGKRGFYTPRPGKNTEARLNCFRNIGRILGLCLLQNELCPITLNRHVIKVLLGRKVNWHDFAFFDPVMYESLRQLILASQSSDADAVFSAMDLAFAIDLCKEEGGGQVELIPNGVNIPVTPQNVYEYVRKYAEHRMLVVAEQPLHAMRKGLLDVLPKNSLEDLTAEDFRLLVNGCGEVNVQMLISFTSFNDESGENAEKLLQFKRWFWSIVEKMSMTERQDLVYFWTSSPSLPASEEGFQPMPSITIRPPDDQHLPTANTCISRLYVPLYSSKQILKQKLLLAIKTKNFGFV
UniProt O94906: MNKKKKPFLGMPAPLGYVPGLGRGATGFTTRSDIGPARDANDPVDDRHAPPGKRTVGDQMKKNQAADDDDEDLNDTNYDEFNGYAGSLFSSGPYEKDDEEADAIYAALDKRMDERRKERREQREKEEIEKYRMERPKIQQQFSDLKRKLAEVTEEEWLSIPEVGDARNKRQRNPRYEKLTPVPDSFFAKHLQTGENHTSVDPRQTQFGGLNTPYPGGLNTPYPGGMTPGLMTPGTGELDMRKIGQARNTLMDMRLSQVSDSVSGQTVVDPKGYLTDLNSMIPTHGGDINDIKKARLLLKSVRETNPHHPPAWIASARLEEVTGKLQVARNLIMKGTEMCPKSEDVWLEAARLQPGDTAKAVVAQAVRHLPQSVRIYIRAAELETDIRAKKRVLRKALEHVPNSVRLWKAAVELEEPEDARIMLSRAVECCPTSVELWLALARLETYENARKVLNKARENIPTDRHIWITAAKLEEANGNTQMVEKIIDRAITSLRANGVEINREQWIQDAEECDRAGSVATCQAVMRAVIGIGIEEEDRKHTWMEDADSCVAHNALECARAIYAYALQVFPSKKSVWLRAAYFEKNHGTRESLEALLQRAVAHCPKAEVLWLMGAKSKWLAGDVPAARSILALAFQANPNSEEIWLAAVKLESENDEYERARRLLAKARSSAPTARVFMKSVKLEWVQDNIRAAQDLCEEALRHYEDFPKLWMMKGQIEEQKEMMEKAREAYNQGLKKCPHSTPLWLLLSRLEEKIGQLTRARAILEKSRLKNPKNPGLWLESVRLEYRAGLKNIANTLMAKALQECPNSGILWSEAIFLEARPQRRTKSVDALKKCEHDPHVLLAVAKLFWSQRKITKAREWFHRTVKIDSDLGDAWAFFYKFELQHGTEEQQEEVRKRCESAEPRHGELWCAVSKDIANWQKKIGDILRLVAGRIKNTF
UniProt P07737, whole entry, looked up: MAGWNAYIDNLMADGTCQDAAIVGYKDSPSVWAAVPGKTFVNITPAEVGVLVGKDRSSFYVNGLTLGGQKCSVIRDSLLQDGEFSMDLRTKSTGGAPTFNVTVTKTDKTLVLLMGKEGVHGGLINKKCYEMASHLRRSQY
UniProt O95347, whole entry, looked up: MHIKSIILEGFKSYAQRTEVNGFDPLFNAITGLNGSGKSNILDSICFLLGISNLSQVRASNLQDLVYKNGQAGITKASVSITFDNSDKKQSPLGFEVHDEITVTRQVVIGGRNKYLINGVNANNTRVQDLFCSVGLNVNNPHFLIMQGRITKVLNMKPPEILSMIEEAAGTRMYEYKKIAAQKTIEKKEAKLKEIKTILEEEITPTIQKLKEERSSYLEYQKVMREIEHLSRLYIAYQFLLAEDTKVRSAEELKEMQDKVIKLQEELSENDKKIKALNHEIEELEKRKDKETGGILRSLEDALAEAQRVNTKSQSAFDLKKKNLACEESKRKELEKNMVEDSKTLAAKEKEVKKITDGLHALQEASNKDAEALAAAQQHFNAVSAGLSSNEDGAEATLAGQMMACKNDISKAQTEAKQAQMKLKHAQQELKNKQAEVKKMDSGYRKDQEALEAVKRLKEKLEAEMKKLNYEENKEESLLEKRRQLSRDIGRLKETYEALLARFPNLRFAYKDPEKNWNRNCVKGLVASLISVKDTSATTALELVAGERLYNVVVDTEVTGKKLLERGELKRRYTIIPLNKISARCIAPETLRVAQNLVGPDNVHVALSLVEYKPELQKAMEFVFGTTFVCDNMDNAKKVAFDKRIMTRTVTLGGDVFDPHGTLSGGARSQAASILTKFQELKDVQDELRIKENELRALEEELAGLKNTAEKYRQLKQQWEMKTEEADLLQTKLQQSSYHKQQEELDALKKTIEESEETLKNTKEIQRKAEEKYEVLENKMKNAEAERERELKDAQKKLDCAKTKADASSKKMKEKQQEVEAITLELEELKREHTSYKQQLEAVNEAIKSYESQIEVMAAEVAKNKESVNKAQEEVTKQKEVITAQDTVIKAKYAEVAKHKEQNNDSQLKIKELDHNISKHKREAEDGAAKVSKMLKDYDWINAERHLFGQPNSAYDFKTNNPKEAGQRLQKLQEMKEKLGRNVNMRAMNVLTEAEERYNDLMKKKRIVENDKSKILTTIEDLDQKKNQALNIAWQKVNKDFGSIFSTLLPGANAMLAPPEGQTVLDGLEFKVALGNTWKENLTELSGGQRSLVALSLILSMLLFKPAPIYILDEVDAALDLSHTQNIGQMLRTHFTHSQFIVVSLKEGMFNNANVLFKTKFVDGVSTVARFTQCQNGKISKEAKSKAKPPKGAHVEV
UniProt P07814: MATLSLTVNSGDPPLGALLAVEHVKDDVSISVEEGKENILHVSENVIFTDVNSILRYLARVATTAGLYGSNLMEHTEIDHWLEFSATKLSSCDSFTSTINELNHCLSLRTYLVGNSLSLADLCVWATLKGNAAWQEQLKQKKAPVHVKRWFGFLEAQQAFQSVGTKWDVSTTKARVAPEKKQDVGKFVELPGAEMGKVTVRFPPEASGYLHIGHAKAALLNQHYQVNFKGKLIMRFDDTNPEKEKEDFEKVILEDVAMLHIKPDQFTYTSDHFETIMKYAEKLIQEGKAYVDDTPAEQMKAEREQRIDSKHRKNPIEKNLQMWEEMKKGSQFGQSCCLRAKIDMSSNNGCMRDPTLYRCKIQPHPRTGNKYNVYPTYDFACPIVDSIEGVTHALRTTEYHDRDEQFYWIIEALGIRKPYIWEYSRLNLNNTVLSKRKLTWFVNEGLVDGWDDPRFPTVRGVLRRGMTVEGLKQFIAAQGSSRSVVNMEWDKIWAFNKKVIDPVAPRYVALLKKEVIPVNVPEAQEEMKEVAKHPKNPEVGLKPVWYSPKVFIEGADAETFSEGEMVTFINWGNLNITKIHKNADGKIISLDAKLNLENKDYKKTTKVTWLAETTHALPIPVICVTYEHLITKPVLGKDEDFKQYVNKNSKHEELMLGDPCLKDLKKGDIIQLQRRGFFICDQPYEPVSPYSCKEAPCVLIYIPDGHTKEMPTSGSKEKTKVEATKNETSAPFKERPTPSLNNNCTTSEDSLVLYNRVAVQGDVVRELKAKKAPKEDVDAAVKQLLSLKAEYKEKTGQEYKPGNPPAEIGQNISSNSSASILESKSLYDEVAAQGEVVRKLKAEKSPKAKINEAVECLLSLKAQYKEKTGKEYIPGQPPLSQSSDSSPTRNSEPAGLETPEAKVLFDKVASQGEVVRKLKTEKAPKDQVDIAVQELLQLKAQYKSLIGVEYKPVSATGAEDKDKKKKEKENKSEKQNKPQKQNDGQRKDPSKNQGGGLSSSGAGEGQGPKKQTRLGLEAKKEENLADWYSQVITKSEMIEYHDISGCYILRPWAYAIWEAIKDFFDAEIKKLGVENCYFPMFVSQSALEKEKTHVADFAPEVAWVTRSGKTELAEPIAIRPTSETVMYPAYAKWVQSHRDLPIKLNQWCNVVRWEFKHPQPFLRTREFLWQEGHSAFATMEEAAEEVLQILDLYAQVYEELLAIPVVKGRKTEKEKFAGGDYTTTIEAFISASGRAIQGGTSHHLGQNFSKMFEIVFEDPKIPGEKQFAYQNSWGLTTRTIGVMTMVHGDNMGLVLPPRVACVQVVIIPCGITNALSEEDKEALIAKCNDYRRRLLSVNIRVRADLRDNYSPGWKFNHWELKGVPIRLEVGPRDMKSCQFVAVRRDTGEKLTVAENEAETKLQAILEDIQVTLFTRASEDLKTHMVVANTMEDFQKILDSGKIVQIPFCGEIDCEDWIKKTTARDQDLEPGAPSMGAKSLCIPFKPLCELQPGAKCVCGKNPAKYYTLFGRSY

compound: COC(=O)/C=C/c1ccccc1 [methyl cinnamate]; experiment: log2 ratio of iodoacetamide-alkyne labeling of the cysteine site, DMSO over compound (competition); higher = stronger covalent engagement of the cysteine by the compound, active = 1 or more; conditions: 500 µM; treatment time 1 h; system: HEK293T cell lysate
How it was run: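 The log2 competition ratio per cysteine is defined as mean reporter intensity in control channels over mean reporter intensity in compound channels. Lysate from HEK293T cells (2 mg/mL) received electrophile (500 µM) or vehicle for 1 h at ambient temperature, followed by iodoacetamide alkyne for 1 h. Samples were clicked to sCIP-TMT reagents, pooled, trypsin-digested overnight at 37 °C, streptavidin-enriched, acid-eluted and run on Orbitrap Eclipse LC-MS/MS with FAIMS, with quantification in FragPipe. Three replicates with duplicate channels were used, and any cysteine quantified in only one replicate was excluded.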

log2 ratio of iodoacetamide-alkyne labeling, inactive:
SOGA1 C267 (UniProt O94964) 0.0286
ATP1A1 C211 (UniProt P05023) 0.125
UniProt O95071_C2267 -0.0654
PRPF6 C698 (UniProt O94906) 0.0159
HERC2 C2726 (UniProt O95714) 0.042
ACSL3 C85 (UniProt O95573) -0.245
SVIL C178 (UniProt O95425) -0.0271
PFN1 C17 (UniProt P07737) -0.293
ANXA2 C133 (UniProt P07355) 0.172
UniProt P04439_C363 0.225
UROD C35 (UniProt P06132) 0.263
KIF4A C1171 (UniProt O95239) -0.11
GLS C518 (UniProt O94925) -0.00961
BCL10 C122 (UniProt O95999) 0.317
SBF1 C896 (UniProt O95248) 0.107
ZRANB2 C71 (UniProt O95218) 0.1
UniProt O94804_C947 0.194
SMC2 C585 (UniProt O95347) 0.404
NFAT5 C217 (UniProt O94916) 0.295
RPN1 C477 (UniProt P04843) 0.164
CTSD C117 (UniProt P07339) 0.218
MTA2 C209 (UniProt O94776) -0.0402
HERC2 C221 (UniProt O95714) -0.0658
TXNDC12 C66 (UniProt O95881) 0.238
CAPNS1 C190 (UniProt P04632) -0.115
RTN3 C34 (UniProt O95197) 0.195
UniProt P07437_C201 0.193
AIFM1 C441 (UniProt O95831) -0.0235
BPNT1 C206 (UniProt O95861) 0.286
EPRS C1076 (UniProt P07814) 0.0304
EPRS C1480 (UniProt P07814) -0.128
POLR1A C582 (UniProt O95602) -0.0285
HEXIM1 C122 (UniProt O94992) -0.0421
ZWINT C54 (UniProt O95229) 0.205
LATS1 C885 (UniProt O95835) 0.0997
UniProt O96017_C385 -0.139
KIF4A C312 (UniProt O95239) -0.313

3 successive entries from above, quoted:
log2 ratio of iodoacetamide-alkyne labeling, inactive:
EPRS C1076 (UniProt P07814) 0.0304
EPRS C1480 (UniProt P07814) -0.128
POLR1A C582 (UniProt O95602) -0.0285
